Measured values from article PMC5743546 (Biochemistry, 2017).

Assays:
[1] = target: T1, CYP2J2 (Homo sapiens, UniProt P51589); type: binding
T1 sequence (P51589 1-502): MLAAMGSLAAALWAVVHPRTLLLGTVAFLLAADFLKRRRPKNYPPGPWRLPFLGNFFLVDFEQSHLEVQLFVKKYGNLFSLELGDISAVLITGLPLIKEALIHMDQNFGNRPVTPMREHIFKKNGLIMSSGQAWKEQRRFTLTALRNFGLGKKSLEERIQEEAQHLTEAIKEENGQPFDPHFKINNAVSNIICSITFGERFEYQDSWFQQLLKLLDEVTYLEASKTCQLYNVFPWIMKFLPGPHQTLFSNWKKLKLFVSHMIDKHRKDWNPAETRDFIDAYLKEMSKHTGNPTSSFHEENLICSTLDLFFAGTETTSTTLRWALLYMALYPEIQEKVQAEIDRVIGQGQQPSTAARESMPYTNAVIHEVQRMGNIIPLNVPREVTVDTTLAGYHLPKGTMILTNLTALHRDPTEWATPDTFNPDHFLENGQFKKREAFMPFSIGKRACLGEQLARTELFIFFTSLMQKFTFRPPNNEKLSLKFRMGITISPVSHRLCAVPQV

[2] = target: T1, CYP2J2; conditions: read-out: KD of binding to CYP2J2 active site; one-site binding; cited from earlier work

CC(C)(C)c1ccc(C(=O)CCCN2CCC(OC(c3ccccc3)c3ccccc3)CC2)cc1 [EBS, ebastine]
Ki [1]: 13.8 ± 1.6 µM | inhibition of 7-de-aDOX binding to CYP2J2 (in words) ([1]; 60 μM EBS, 1 μM 7-de-aDOX): did not inhibit | Kd [2]: 8.16 µM
